From patent publication US20120114667A1

Target: Macaque α5β1 (Macaque)
Test: FACS on macaque PBMC

B1: 5B11 (antibody, IgG2, V domains shown)
VH: QVQLVESGGGVVQPGRSVRLSCAASGFTFSSYGMHWVRQTPGKGLEWVAIIWYDGGIEYYADSVKGRFTISRDNSKNTLYLQMNSLRAEDTAVYYCARDHRYGSSWFDYWGQGTLVTVSS
VL: DIQMTQSPSSLSASVGDRVTITCRASQGINNYLAWFQQKPGKAPKSLIYAASSLQSGVPSNFSGSGSGTDFTLSISSLQPEDFATYYCQQYKSYPLTFGGGTKVEIR
With B1 as the binder, how does the binding read?
The binding was “binds”.

B2: 3C5 (antibody, IgG2, V domains shown)
VH: RVQLQESGPGLVKPSQTLSLTCTVSGGSIISGGYFWTWIRQHPGKGLEWIGYIYYSGSTYYSPSLKSRVTISVDTSKNQFSLKLSSVTAADTAVYYCTRAVPAAKGYYSYYGMDVWGQGTTVTVSS
VL: DIVMTQSPLSLPVTPGEPASISCRSSQSLLHSSGYNYLDWFLQKPGQSPQLLIYLSSNRASGVPDRFSGSGSGTDFTLKISRVEAEDVGVYYCMQALQTPFTFGPGTKVDIK
How did the binding turn out when B2 was run?
Its binding is “binds”.

Results are given in words; binding and its absence hold for the method and conditions named. A result given as binding can be weak or reduced; the word gives no strength.
